Counter-ions that a name gives are not always drawn. Some of the results follow. Repeats in this data set agree poorly, so a single value says little.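 A screen tested FDA-approved drugs combined with one-eighth-MIC colistin against a clinical mcr-1-positive, multidrug-resistant E. coli isolate, measuring OD600 at 24 h. Controls were untreated bacteria (growth) and broth alone (blank). An OD600 under 0.2 marked a combination as active.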
Tested on: Escherichia coli 42 (mcr-1-positive clinical isolate)
Assay: OD600 after 24 h growth with compound plus colistin (absorbance units (OD600)); higher = more bacterial growth (less inhibition)
Conditions: first compound 25 µM; colistin concentration 0.5 ug/mL; incubation time 24 h; 37 °C

SMILES	OD600
Fc1ccc([C@@H]2CCNC[C@H]2COc2ccc3c(c2)OCO3)cc1 [Paroxetine hydrochloride] + CCC(C)CCCC(=O)N[C@@H](CCN)C(=O)N[C@H](C(=O)N[C@@H](CCN)C(=O)N[C@H]1CCNC(=O)[C@H]([C@@H](C)O)NC(=O)[C@H](CCN)NC(=O)[C@H](CCN)NC(=O)[C@H](CC(C)C)NC(=O)[C@@H](CC(C)C)NC(=O)[C@H](CCN)NC1=O)[C@@H](C)O [colistin]	inactive: 0.761
C[C@H](Cn1cnc2c(N)ncnc21)OCP(=O)(O)O [Tenofovir] + CCC(C)CCCC(=O)N[C@@H](CCN)C(=O)N[C@H](C(=O)N[C@@H](CCN)C(=O)N[C@H]1CCNC(=O)[C@H]([C@@H](C)O)NC(=O)[C@H](CCN)NC(=O)[C@H](CCN)NC(=O)[C@H](CC(C)C)NC(=O)[C@@H](CC(C)C)NC(=O)[C@H](CCN)NC1=O)[C@@H](C)O [colistin]	inactive: 0.888
CC(C)[C@H](N)C(=O)OCCOCn1cnc2c(=O)nc(N)[nH]c21 [Valacyclovir hydrochloride] + CCC(C)CCCC(=O)N[C@@H](CCN)C(=O)N[C@H](C(=O)N[C@@H](CCN)C(=O)N[C@H]1CCNC(=O)[C@H]([C@@H](C)O)NC(=O)[C@H](CCN)NC(=O)[C@H](CCN)NC(=O)[C@H](CC(C)C)NC(=O)[C@@H](CC(C)C)NC(=O)[C@H](CCN)NC1=O)[C@@H](C)O [colistin]	inactive: 1.08

From the supplement of paper PMC11546906
